Each number is a percent effect as filed. The controls that fix the scale are not given in the record; negative values are as filed. This is an unselected part of the compounds tested.

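Assay of Toxoplasma gondii numbers, read through their beta-galactosidase reporter with a colour substrate. Compounds at 50 µM. The record gives no direction; the compounds picked for IC50 retests had high values, so higher reads as fewer parasites. Of about 18,000 compounds tested this way, about 170 (0.94%) reached 50% or more in at least one test.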

compound,percent effect
N#Cc1cc(Cl)ccc1N1CCN(CCO)CC1,-4.39%
COc1cccc(OCCN2CCNCC2)c1,11.64%
CCCOc1ccccc1C(=O)NC1CCNC1 (stereo not shown),0.4406%
NC(=O)[C@@H]1Cc2ccccc2CN1CCn1cccn1,-4.239%
COC(=O)[C@H](C)NC(=O)c1csc(-c2cnccn2)n1,3.281%
CC1(C)CN(C(=O)c2cscn2)CCS1(=O)=O,0.262%
CCN1CCN(S(=O)(=O)c2c(F)cccc2F)CC1,-8.353%
CC(Nc1c[nH]c(=O)[nH]c1=O)c1ccccc1 (stereo not shown),-19.84%
O=C(c1ccc(F)cc1)C(O)O,0.6979%
Cn1nnc2cc(C(=O)NC(C)(C)C)ccc21,-40.56%
NC(=O)N1CCCC(Nc2nc(C3CC3)ns2)C1 (stereo not shown),4.304%
CN(C)CC(C)(C)CNC1CCN(C)CC1,-6.765%
CN1C(=O)Cc2cc(Cl)ccc2C1=O,14.34%
NCc1ccc2c(c1)CCC2,-0.7571%
CN(CCC1CCCN1C)CC(=O)N(C)C (stereo not shown),8.465%
CNc1nc(C)cc(C(=O)NC(C)c2ncon2)n1 (stereo not shown),0.6307%
CC(C)N(C(=O)CSc1nnc[nH]1)C(C)C,4.473%
COCCCOc1ccc2c(c1)OCCO2,-0.1335%
Cc1cccc(C)c1NC(=O)N[C@@H]1CNCC[C@H]1O,14.45%
CC(=O)c1cccc(NC(=O)NCc2cc[nH]n2)c1,-19.06%
CC(C)NC(=O)N1CCCC(S(C)(=O)=O)C1 (stereo not shown),31.42%
COc1cc(OC)c(C(=O)c2nccn2C)c(OC)c1,5.002%
NCc1cc2ccccc2[nH]c1=O,-3.33%
NCC(O)c1cc(Cl)c2c(c1)OCCO2 (stereo not shown),-4.691%
COC(=O)CC(C)(N)c1ccccc1 (stereo not shown),-1.921%
O=C(CCn1cccn1)NCC1Cc2ccccc2O1 (stereo not shown),11.99%
Cc1n[nH]c(CN2CCCC3(CCNC3)C2)c1Cl (stereo not shown),18.47%
NCC(N)c1ccc2ncccc2c1 (stereo not shown),-7.771%
CCN(C)S(=O)(=O)NCC1(N)CCCCC1,-7.198%
CS(=O)(=O)CC(=O)N(Cc1ccccc1)CC1CCC1,-18.04%
NC(=O)N1CCCC(C(=O)NC2CCCCC2)C1 (stereo not shown),3.644%
OC1(CN2CCCC2)CCCN(Cc2ccncc2)C1 (stereo not shown),-21.76%
CC(=O)NCCNC(=O)CC(C)C1CCCCC1 (stereo not shown),-13.76%
CCCNC(=O)C(C)NC(=O)c1ccc(F)cc1 (stereo not shown),3.679%
COC(=O)CC(NC(=O)c1cc(C)n[nH]1)C1CC1 (stereo not shown),5.421%
COCC(C)NC(=O)CCNC(=O)c1cccc(C)c1 (stereo not shown),-1.063%
COc1c(CNCCNc2ncccn2)c(C)nn1C,-0.9563%
CNC(=O)C1CCCN(C(=O)Cc2ccc(F)cc2)C1 (stereo not shown),-18.03%
O=C(N1CCCCC1)N1CCCC(c2nnc[nH]2)C1 (stereo not shown),-2.969%
COCc1nn(CCCN2CCCCC2)c(=O)o1,7.149%
CN(C)S(=O)(=O)Cc1ccc(Br)cc1,-8.791%
O=S(=O)(c1ccc2c(c1)OCCO2)N1CCCNCC1,3.594%
OC(COCc1cccs1)CN1CCOCC1 (stereo not shown),5.464%
CCN1CCCC(CNC(=O)Nc2cnn(CC)c2)C1 (stereo not shown),10.44%
CC(C(=O)NCc1ncccc1F)N1CCSCC1 (stereo not shown),-6.024%
CC(O)CN1CCN(c2ncnc3c2CCC3)CC1 (stereo not shown),-2.785%
CSCc1nc(CNCC2(O)CCCNC2)cs1 (stereo not shown),14.48%
CN(C)c1cc(CNC(=O)c2cccnc2)ccn1,-5.196%
Cc1[nH]ncc1CCCNC(=O)CCN,1.378%
CC1CCCN(S(=O)(=O)N(C)Cc2ccco2)C1 (stereo not shown),2.935%
Nc1ccnc(-c2ccccc2)n1,14.83%
O=C(c1cccs1)N1CCCN(Cc2cscn2)CC1,8.923%
CCN(CC)S(=O)(=O)c1csc(C(=O)N(C)C)c1,1.279%
CC1CCCN(Cc2nc(N)nc(N(C)C)n2)C1 (stereo not shown),28.57%
O=C1CN(C(=O)CCC(=O)c2ccc(Cl)cc2)CCN1,10.27%
N#CCCOc1ccccc1,-4.64%
CCCS(=O)(=O)N1CCC(C(=O)N(C)C)CC1,-1.959%
COCCCNC(=O)c1cc(S(C)(=O)=O)ccc1C,-11.16%
O=C(NC1COC2(CCNCC2)C1)c1cnccn1 (stereo not shown),-5.471%
O=C(CSCc1ccc(Cl)s1)N1CCOCC1,-2.717%
OCCN1CCN(c2ncnc3cccc(F)c23)CC1,-5.494%
Cc1n[nH]cc1CNc1ccc(F)cc1,-3.95%
CCNc1ncc(C(=O)N2CCCc3sccc3C2)s1,-2.705%
CN1C[C@@H](N)C[C@H]1C(=O)NCCCN1CCOCC1,-2.879%
NCC1CCc2ccccc21 (stereo not shown),-3.939%
COc1ccnc(N2CCC(F)(CO)C2)n1 (stereo not shown),3.064%
COc1ccnc(NC(=O)c2sccc2OC)c1,16.84%
CC(C)(C)OC(=O)N1CCC(N2CC(O)C2)CC1,-14.49%
CC(=O)c1ccc(S(=O)(=O)NC(CN)C2CC2)cc1 (stereo not shown),-5.024%

For reference, 5 entries once more:

{"compound": "Cc1n[nH]cc1CNc1ccc(F)cc1", "percent effect": -3.95}
{"compound": "CN(CCC1CCCN1C)CC(=O)N(C)C", "stereo": "stereo not shown", "percent effect": 8.465}
{"compound": "CSCc1nc(CNCC2(O)CCCNC2)cs1", "stereo": "stereo not shown", "percent effect": 14.48}
{"compound": "CC(O)CN1CCN(c2ncnc3c2CCC3)CC1", "stereo": "stereo not shown", "percent effect": -2.785}
{"compound": "NCC1CCc2ccccc21", "stereo": "stereo not shown", "percent effect": -3.939}

From ChEMBL document CHEMBL3988442, “University of Dundee, Small-Polar-MMV Screening Library” (2021).